# According to PubChem BioAssay AID540276 (National Center for Advancing Translational Sciences (NCATS), 2011):
# Out of some 300,000 compounds screened, about 5,400 (1.8%) were called active. Inconclusive means that the source gave no clear call. Such entries were picked first, then a sample of the others. Calls come from the whole dose curve; tested in HEK293 cells. Where the call is inconclusive, the potency comes from a doubtful curve fit.
# Assay: qHTS for inhibitors of binding or entry into cells for Marburg Virus
# Details: Marburg virus pseudotyped entry inhibition, cell reporter; series mostly up to 37.8 µM
# Potency is the fitted concentration of half-maximal effect.
row,SMILES,Potency
1,O=C(CSc1nc2ccc(Cl)cc2[nH]1)c1c[nH]c2ccccc12,"inconclusive: 2.51 µM [inhibitor, full curve, poor fit]"
2,CCOC(=O)CC(=O)CSc1nc2c(sc(=S)n2-c2ccc(C)c(C)c2)c(=O)[nH]1,"inconclusive: 25.1 µM [inhibitor, partial curve, poor fit]"
3,Clc1ccc(OCCSc2nnnn2C2CCCCC2)cc1,"inconclusive: 11.2 µM [activator, partial curve, poor fit]"
4,O=C(COc1ccccc1-c1ccccc1)N/N=C/c1ccncc1,"inconclusive: 35.5 µM [inhibitor, single point]"
5,COc1ccccc1NC(=O)N(Cc1ccccc1)c1ccccn1,inactive
6,Cc1ccc(C(=O)NC(C)C2CC3CCC2C3)c(C)c1 (configuration not stated),"inconclusive: 6.31 µM [activator, full curve, poor fit]"
7,Cc1ccc(C(C)C)c(OCCn2cc(C(=O)c3ccco3)c3ccccc32)c1,"inconclusive: 11.2 µM [inhibitor, single point]"
8,Cc1ccc2ncnc(NCCCN3CCOCC3)c2c1,inactive
9,Cc1ccc2nc(NC(=O)c3ccccn3)sc2c1,"inconclusive: 1.12 µM [inhibitor, full curve, poor fit]"
10,CCc1ccc2[nH]c(=O)c(CN(CCCN3CCOCC3)C(=O)Nc3ccc(F)cc3)cc2c1,"inconclusive: 22.4 µM [inhibitor, single point]"
11,Cc1cc(C(=O)N/N=C/c2cc(N=Nc3ccccc3)ccc2O)n[nH]1,active: 0.501 µM
12,COc1ccc(CCNc2oc(-c3ccc(OC)c(OC)c3)nc2C#N)cc1,inactive
13,CC(=O)c1cnc(N2CCCCC2)nc1C,inactive
14,O=[N+]([O-])c1ccc(NCCNS(=O)(=O)c2ccccc2)c(C(F)(F)F)c1,"inconclusive: 35.5 µM [inhibitor, single point]"
15,Cc1ccccc1NC(=O)C1c2cccc[n+]2CC(=O)N1c1c(C)cccc1C (configuration not stated),inactive
16,COc1cc(-c2nnc(CSc3nnc(Nc4ccc(C(C)C)cc4)s3)o2)cc(OC)c1OC,"inconclusive: 3.55 µM [inhibitor, single point]"
17,CCOC(=O)c1cnc2ccc(C(=O)OC)cc2c1Nc1ccc2c(c1)OCCO2,"inconclusive: 3.66 µM [inhibitor, partial curve]"
18,Cc1nc2c(ccc3nc(NC(=O)Cc4ccccc4)sc32)s1,"inconclusive: 6.51 µM [activator, single point]"
19,CC(C)(C)NS(=O)(=O)c1ccc2[nH]c3c(c2c1)CCCCC3,"inconclusive: 5.01 µM [inhibitor, full curve, poor fit]"
20,C/C(=N\NS(=O)(=O)c1ccc(C)c([N+](=O)[O-])c1)c1cccs1,"inconclusive: 7.08 µM [inhibitor, partial curve, poor fit]"
21,O=C(O)C/C(=C\c1ccc(Cl)cc1)c1nc2ccccc2o1,inactive
22,Cc1nc2cc(N3CCCCC3)c(NC(=O)c3cccnc3)cc2c(=O)n1Cc1ccccc1,inactive
23,O=C(NCCCN1CCN(c2ccc(F)cc2)CC1)C1CCCN(c2ncnc3c2nc2n3CCCCC2)C1 (configuration not stated),"inconclusive: 6.31 µM [inhibitor, partial curve, poor fit]"

# As entered above.
# `CC(C)(C)NS(=O)(=O)c1ccc2[nH]c3c(c2c1)CCCCC3` – Potency: inconclusive: 5.01 µM [inhibitor, full curve, poor fit]
# `COc1ccc(CCNc2oc(-c3ccc(OC)c(OC)c3)nc2C#N)cc1` – Potency: inactive
# `Cc1ccccc1NC(=O)C1c2cccc[n+]2CC(=O)N1c1c(C)cccc1C` (configuration not stated) – Potency: inactive

# Later entries

row,SMILES,Potency
1,CCOC(=O)c1c(NC(=O)CSc2nnnn2-c2ccccc2)sc2c1CC(C)(C)NC2(C)C,"inconclusive: 12.6 µM [inhibitor, partial curve, poor fit]"
2,S=C(NN=C1CCCCCC1)Nc1ccc(Cl)cc1,"inconclusive: 18.3 µM [activator, partial curve, poor fit]"
3,O=C(NCCc1ccccc1)c1nc(-c2cccs2)no1,inactive
4,Cc1cccn2cc(-c3ccc(S(=O)(=O)N4CCCCC4)cc3)nc12,"inconclusive: 35.5 µM [inhibitor, single point]"
5,CCCOC(=O)/C(=C\C=C\c1ccccc1)NC(=O)c1ccccc1,"inconclusive: 14.6 µM [inhibitor, partial curve]"
6,CCOC(=O)c1ccc(-c2ccc(/C=N/NC(=O)Cc3nnc(N)s3)o2)cc1,"inconclusive: 6.31 µM [activator, single point]"
7,COc1cccc(C(=O)N2c3ccccc3Sc3ccccc32)c1,"inconclusive: 12.6 µM [inhibitor, partial curve, poor fit]"
8,C=C(C)c1cccc(C(C)(C)NC(=O)Nc2ccc(C(N)=O)cc2)c1,"inconclusive: 6.31 µM [inhibitor, partial curve]"
9,O=C(CCCOc1ccc(Cl)cc1Cl)N/N=C/c1ccc(Cl)cc1,"inconclusive: 6.31 µM [activator, single point]"
10,Clc1ccc(Cc2nc(-c3cccnc3)no2)cc1,inactive
11,Cc1ccc(-c2cc(C(=O)NCCc3ccccn3)c3ccccc3n2)c(C)c1,"inconclusive: 0.794 µM [inhibitor, full curve, poor fit]"
12,Cc1ccc(-c2nc(-c3ccncc3)no2)cc1C,"inconclusive: 11.2 µM [inhibitor, single point]"
13,CN(C)CCCn1c(NCc2ccc3c(c2)OCO3)nc2ccccc21,"inconclusive: 29.1 µM [inhibitor, single point]"
14,Cc1cc(-c2nn(-c3ccccc3F)cc2CNCCc2cnccn2)c(C)s1,"inconclusive: 28.2 µM [inhibitor, partial curve, poor fit]"
15,COc1ccc2c(c1)C(=O)N(c1ccccc1C)C(=O)C2(C)C,inactive
16,Cc1ccc(C(=O)CSc2nccn2-c2ccccc2)cc1,"inconclusive: 10 µM [activator, partial curve]"
17,O=C(CC12CC3CC(CC(C3)C1)C2)NCC(=O)OCc1cc(=O)oc2ccc3ccccc3c12,"inconclusive: 0.562 µM [inhibitor, full curve, poor fit]"
18,O=C(CSC(=S)N1CCOCC1)c1ccccc1,active: 7.31 µM
19,CC(=O)c1ccc(N2CCN(C(=O)CN(C)S(=O)(=O)c3cnc[nH]3)CC2)cc1,"inconclusive: 35.5 µM [activator, single point]"
20,CCOC1OC2C(CO)OC(n3cnc4c(N)ncnc43)C2O1 (configuration not stated),"inconclusive: 1.03 µM [inhibitor, full curve, poor fit]"
21,O=C(Cn1cc(SCc2cccc(Cl)c2)c2ccccc21)N1CCOCC1,"inconclusive: 35.5 µM [inhibitor, single point]"
22,Cc1cc(C)n2nc(CNS(=O)(=O)c3ccc(Cl)cc3)nc2n1,inactive
23,COc1ccc(-c2nc3cc(NC(=O)c4ccc5c(c4)OCO5)ccc3o2)cc1,"inconclusive: 6.31 µM [inhibitor, single point]"

row,SMILES,Potency
1,COc1ccccc1-n1c(SCC(N)=O)nnc1-c1ccccc1,inactive
2,Oc1ccccc1C=NCCN1CCN(CCN=Cc2ccccc2O)C1c1ccccc1O (configuration not stated),"inconclusive: 3.16 µM [activator, single point]"
3,COc1cccc(C2Oc3ccccc3C3CC(c4cccs4)=NN32)c1 (configuration not stated),inactive
4,Cc1ccc(C(=O)N2CCCC(C(F)(F)F)C2)cc1S(=O)(=O)N1CCOCC1 (configuration not stated),"inconclusive: 35.5 µM [activator, single point]"
5,CN(C)S(=O)(=O)c1cccc(NC(=O)CNCC2CCCCC2)c1,"inconclusive: 29.1 µM [inhibitor, single point]"
6,Cc1ccc(N2C(=O)Cc3ccccc3C2=O)cc1,inactive
7,COc1ccc(-n2c(C)cc(/C=N/Nc3nc(N4CCOCC4)nc(N4CCOCC4)n3)c2C)cc1,active: 7.31 µM
8,CCCCN(C)S(=O)(=O)c1cc2c(cc1Br)CCN2C(=O)C1CC1,"inconclusive: 22.4 µM [inhibitor, single point]"
9,CC(C)Sc1nc2c(cnn2-c2ccccc2)c(=O)[nH]1,"inconclusive: 6.51 µM [inhibitor, single point]"
10,CC(C)CC(=O)Nc1ccc(C(=O)CN2CCN(c3ccc(O)cc3)CC2)cc1,"inconclusive: 12.6 µM [activator, partial curve, poor fit]"
11,N=C1S/C(=C\c2cccc3ccccc23)C(=O)N1c1ccc(F)cc1,"inconclusive: 7.08 µM [inhibitor, full curve, poor fit]"
12,CCC(C)(C(=O)NC1CCCCC1)N(Cc1ccco1)C(=O)c1cnccn1 (configuration not stated),"inconclusive: 2.91 µM [inhibitor, full curve, poor fit]"
13,CCCOc1ccccc1OCC(=O)Nc1ccc(S(=O)(=O)N2CCCCC2)cc1,"inconclusive: 35.5 µM [inhibitor, partial curve, poor fit]"
14,COc1ccc(NC(=O)c2cccc(N3C(=O)C4CC=C(C)CC4C3=O)c2)c(OC)c1 (configuration not stated),"inconclusive: 10 µM [activator, partial curve, poor fit]"
15,Cc1ccc(C(=O)CC2(O)C(=O)N(CCc3ccccc3)c3ccc(Br)cc32)o1 (configuration not stated),"inconclusive: 1 µM [activator, partial curve, poor fit]"
16,CC1(C)C2([N+](=O)[O-])CN3CN(C2)CC1([N+](=O)[O-])C3,"inconclusive: 5.62 µM [inhibitor, single point]"
17,COc1ccc(NC(=O)Cn2c([N+](=O)[O-])cnc2C)cc1Cl,"inconclusive: 3.98 µM [activator, partial curve]"
18,CCOc1ccc(CNC(=O)c2cc3c(=O)n(C)c4ccccc4c3s2)cc1,inactive
19,CN(C)CCN(Cc1ccco1)S(=O)(=O)c1ccc(-c2ccc(=O)[nH]n2)s1,inactive
20,CCSc1ncc(C#N)c(=O)[nH]1,"inconclusive: 7.94 µM [activator, partial curve]"
21,Cc1cc(F)ccc1NC(=S)NCCc1ccccc1,inactive
